This is one part of the list.

Sequences of proteins named here, by UniProt entry; tags and fusion partners are left off. A change or cut given only in a name is not applied to a line headed by its entry.
UniProt Q9BSJ2, whole entry, looked up: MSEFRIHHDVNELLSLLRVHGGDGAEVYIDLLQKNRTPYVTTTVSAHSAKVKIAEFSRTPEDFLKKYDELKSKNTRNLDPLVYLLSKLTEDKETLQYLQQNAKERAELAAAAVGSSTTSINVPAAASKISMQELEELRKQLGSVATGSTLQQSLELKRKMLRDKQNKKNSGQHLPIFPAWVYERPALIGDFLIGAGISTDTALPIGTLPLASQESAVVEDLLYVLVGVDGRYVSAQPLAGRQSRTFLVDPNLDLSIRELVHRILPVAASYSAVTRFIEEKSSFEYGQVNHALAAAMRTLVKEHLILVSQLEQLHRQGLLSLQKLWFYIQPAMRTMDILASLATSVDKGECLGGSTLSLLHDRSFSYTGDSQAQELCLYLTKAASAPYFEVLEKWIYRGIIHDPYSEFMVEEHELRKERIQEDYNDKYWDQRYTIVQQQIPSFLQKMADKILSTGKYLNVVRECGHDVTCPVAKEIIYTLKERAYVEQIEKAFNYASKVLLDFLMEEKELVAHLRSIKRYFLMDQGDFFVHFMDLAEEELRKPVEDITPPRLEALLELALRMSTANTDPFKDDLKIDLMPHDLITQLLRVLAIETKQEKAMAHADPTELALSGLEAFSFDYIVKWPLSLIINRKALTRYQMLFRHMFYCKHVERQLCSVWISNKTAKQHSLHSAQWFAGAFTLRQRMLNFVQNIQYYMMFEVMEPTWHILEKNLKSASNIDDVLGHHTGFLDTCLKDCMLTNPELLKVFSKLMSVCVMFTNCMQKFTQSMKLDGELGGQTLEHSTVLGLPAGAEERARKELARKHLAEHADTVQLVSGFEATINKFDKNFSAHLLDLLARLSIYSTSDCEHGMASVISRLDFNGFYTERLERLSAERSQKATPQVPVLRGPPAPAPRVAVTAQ
UniProt P68036, whole entry, looked up: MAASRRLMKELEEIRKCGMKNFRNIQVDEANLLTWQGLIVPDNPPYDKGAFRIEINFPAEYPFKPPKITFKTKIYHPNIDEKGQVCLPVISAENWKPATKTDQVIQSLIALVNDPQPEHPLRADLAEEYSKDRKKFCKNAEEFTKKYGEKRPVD
UniProt O15042: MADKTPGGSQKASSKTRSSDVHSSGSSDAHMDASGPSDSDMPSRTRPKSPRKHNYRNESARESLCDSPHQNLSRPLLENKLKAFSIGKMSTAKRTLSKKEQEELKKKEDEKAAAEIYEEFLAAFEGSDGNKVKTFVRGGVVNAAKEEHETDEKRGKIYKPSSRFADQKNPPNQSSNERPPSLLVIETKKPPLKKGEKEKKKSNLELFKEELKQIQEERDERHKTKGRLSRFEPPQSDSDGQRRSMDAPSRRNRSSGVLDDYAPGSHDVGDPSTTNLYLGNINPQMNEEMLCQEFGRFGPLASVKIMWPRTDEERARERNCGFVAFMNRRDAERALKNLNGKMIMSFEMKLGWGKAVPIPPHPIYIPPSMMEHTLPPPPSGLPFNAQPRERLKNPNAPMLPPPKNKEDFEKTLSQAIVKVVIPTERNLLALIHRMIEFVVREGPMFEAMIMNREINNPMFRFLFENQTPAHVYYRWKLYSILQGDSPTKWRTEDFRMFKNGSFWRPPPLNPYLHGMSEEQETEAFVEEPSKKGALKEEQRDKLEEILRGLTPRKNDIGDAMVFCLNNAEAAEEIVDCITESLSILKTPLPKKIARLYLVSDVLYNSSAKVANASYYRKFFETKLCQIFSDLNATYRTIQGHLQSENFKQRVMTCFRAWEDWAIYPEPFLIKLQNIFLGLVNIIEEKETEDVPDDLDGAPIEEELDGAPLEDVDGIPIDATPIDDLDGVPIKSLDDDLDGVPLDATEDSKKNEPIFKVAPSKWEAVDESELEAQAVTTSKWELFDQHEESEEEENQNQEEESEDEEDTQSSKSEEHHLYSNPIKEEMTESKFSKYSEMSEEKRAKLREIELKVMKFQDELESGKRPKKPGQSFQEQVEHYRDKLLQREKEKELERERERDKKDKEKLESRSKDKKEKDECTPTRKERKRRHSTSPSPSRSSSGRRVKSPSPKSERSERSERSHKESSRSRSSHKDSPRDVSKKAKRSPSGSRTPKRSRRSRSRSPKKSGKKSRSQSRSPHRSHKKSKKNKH
UniProt Q9H832: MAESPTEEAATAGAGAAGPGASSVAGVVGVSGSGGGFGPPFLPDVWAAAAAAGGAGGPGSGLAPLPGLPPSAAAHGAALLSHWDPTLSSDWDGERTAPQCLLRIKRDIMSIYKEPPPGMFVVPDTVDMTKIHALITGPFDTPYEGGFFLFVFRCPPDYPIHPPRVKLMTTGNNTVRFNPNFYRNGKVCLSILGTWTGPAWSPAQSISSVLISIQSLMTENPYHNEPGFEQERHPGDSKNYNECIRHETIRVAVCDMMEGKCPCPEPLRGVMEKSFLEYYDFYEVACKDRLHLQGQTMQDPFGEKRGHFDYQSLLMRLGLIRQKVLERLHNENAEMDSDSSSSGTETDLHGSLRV
UniProt Q9H4B7, whole entry, looked up: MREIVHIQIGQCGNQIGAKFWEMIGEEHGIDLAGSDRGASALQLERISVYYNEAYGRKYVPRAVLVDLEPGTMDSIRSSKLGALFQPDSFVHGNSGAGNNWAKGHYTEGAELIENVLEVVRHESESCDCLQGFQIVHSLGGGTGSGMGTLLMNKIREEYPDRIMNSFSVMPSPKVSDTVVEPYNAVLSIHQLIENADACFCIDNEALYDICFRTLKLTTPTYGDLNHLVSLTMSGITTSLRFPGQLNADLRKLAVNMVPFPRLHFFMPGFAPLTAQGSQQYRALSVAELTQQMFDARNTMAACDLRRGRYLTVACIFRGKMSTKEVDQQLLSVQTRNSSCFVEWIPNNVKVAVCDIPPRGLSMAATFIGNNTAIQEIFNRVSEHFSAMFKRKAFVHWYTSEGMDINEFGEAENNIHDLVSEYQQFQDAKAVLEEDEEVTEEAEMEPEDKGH
UniProt Q15631: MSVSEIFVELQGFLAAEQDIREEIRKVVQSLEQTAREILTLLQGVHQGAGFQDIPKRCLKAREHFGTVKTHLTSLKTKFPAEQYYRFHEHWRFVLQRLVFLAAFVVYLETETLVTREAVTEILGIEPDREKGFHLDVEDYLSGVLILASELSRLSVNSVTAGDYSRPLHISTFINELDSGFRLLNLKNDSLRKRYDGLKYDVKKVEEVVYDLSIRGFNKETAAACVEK
UniProt P61077: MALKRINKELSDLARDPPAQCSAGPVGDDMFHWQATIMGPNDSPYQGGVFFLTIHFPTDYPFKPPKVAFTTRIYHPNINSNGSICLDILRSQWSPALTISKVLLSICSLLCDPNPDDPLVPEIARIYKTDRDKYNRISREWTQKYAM
UniProt P61086: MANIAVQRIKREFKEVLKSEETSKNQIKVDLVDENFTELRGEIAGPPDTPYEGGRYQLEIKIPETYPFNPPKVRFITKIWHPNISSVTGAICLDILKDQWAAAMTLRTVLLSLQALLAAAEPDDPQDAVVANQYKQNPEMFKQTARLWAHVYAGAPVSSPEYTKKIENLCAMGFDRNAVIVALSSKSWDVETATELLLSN
UniProt Q9BUF5, whole entry, looked up: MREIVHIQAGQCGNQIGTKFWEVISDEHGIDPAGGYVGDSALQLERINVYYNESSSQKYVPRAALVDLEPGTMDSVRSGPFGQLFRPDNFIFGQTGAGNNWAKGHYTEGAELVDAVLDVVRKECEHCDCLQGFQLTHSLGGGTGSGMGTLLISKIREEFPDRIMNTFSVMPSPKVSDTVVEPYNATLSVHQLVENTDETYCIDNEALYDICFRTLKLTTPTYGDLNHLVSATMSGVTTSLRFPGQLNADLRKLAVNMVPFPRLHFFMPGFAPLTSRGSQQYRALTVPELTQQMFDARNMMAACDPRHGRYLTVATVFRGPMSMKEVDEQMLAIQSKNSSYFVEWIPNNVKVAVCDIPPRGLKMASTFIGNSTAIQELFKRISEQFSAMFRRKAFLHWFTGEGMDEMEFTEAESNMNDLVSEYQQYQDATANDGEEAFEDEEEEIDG
UniProt P83876: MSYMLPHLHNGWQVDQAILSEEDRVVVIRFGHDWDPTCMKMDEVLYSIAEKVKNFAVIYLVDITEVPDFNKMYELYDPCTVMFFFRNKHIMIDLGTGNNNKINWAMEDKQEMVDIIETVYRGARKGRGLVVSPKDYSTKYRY
UniProt Q6IBS0: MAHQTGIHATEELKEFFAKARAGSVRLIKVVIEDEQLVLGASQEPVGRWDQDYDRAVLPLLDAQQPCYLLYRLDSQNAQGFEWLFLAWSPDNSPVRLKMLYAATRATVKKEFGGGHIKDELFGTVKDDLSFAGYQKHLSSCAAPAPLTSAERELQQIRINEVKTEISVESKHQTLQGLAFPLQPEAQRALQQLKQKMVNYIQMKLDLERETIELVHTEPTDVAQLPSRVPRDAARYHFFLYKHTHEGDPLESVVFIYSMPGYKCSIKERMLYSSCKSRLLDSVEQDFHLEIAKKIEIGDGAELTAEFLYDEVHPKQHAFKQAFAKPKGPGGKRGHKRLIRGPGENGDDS
UniProt Q13630: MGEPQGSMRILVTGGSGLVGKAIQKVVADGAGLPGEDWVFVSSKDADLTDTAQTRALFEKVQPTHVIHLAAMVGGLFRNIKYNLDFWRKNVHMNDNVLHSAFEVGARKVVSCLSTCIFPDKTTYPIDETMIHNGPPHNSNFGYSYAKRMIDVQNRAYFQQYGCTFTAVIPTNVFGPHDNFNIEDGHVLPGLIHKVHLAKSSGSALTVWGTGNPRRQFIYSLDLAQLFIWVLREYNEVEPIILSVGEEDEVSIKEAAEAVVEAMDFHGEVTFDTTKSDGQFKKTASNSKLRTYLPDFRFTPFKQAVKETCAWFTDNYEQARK
UniProt Q9UJT0: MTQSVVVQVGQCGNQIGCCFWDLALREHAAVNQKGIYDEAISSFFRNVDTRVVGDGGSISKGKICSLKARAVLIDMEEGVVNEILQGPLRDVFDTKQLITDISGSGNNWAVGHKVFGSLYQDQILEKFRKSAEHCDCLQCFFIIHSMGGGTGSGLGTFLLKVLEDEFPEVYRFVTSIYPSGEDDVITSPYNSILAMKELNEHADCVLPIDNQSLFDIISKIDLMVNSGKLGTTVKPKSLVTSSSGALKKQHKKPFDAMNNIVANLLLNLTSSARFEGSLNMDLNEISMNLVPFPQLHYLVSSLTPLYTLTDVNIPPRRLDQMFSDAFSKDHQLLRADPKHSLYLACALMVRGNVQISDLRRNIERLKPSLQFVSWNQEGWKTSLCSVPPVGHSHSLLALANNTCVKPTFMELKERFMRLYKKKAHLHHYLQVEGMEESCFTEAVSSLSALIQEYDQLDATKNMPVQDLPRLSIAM
UniProt Q8NBP0: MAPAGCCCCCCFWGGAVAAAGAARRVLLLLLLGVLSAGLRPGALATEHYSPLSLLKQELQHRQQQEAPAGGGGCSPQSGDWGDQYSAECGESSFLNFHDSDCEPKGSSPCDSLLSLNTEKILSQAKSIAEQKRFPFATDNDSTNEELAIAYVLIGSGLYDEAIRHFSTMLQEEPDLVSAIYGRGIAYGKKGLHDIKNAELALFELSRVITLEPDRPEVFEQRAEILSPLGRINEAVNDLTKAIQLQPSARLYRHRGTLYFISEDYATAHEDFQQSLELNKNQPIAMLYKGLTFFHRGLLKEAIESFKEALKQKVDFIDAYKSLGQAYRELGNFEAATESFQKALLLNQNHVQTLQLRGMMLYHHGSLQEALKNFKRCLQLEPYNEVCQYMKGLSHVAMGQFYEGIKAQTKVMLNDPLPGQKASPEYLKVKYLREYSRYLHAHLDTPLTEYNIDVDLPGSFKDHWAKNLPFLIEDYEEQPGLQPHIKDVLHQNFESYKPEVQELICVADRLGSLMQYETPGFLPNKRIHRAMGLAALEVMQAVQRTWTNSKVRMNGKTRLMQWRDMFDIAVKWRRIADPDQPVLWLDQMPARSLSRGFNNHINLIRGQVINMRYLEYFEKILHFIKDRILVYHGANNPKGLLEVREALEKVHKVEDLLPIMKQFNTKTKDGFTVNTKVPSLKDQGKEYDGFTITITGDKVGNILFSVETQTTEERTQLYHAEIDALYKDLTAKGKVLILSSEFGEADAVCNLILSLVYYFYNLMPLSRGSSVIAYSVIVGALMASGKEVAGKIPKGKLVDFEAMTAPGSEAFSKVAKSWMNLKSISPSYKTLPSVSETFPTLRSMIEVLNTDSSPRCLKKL
UniProt P68363, whole entry, looked up: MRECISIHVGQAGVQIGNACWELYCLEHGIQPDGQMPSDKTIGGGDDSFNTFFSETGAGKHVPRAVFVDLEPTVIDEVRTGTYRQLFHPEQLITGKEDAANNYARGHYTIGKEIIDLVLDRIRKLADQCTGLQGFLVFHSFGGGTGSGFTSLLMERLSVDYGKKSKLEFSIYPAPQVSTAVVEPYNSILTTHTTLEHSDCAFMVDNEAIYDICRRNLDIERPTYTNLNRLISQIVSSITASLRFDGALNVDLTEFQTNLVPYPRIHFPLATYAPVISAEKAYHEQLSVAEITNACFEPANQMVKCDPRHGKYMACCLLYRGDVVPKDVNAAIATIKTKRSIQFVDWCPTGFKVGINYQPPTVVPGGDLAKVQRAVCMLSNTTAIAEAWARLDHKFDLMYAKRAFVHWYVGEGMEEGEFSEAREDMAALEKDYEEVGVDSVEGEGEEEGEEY

Compound in this assay: CN1CC[C@H](c2c(O)cc(O)c3c(=O)cc(-c4ccccc4Cl)oc23)[C@H](O)C1 [alvocidib]
Description: log2 fold change, soluble protein after heating vs DMSO (PISA); higher = thermal stabilisation; K562 cells, 10 uM, 30 min; active = over 0.2 and 3.5 SD of the protein, either way, in both replicates (recomputed). In a few lines:
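K562 cells at 2×10^6 cells/mL were treated with 10 μM compound for 30 min. Aliquots were heated for 3 min across 48°C-58°C, pooled, and extracted in PBS with 0.5% NP-40 at 4°C; soluble protein was the supernatant after 21,000xg for 90 min. Soluble protein was quantified by TMTpro 16plex LC-MS/MS with channel sums equalised, and reported as log2 fold change in thermal stability against DMSO controls, with values from duplicates.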
As for TUBGCP2 isoform 4 (UniProt Q9BSJ2), the log2 fold change was inactive: 0.069. On to UBE2L3 isoform 3 (UniProt P68036), for which the log2 fold change is inactive: -0.036. For UBE2M (UniProt P61081) the value was inactive: -0.075. For the target U2SURP (UniProt O15042), the log2 fold change was inactive: -0.215. For UAP1L1 (UniProt Q3KQV9), the log2 fold change is inactive: 0.05.

Regarding TUBA3C (UniProt P0DPH7), the log2 fold change is inactive: -0.032.

For TWF1 (UniProt Q12792), the log2 fold change is inactive: -0.094. The result for TXNDC16 (UniProt Q9P2K2) reads inactive: 0.099; that for UBE2N (UniProt P61088), inactive: -0.017.

As to TSPAN3 (UniProt O60637), the log2 fold change was inactive: -0.033. In the case of UBA5 (UniProt Q9GZZ9), the log2 fold change was inactive: 0.029. TUBB4A (UniProt M0QYM7): the log2 fold change was inactive: -0.049.

Regarding UBE2Z (UniProt Q9H832), the log2 fold change is inactive: -0.058. Turning to TTN isoform 12 (UniProt Q8WZ42), the log2 fold change was inactive: 0.1. Turning to TUBB1 (UniProt Q9H4B7), the log2 fold change is inactive: -0.089. As for TSN (UniProt Q15631), the log2 fold change is inactive: -0.019. For TYW3 (UniProt Q6IPR3) the value was inactive: 0.054; for UBE2D3 isoform 3 (UniProt P61077), inactive: -0.002; for UBE2K (UniProt P61086), inactive: -0.048. In the case of TTC19 (UniProt Q6DKK2), the log2 fold change is inactive: 0.047. With UAP1 (UniProt Q16222), the log2 fold change was inactive: -0.06. On to TUBB6 (UniProt Q9BUF5), for which the log2 fold change is inactive: -0.008. On to TXNL4A (UniProt P83876), for which the log2 fold change is inactive: -0.007. For the target TSR1 (UniProt Q2NL82), the log2 fold change is inactive: 0.1. Turning to TUBB6 (UniProt K7ES63), the log2 fold change was inactive: 0.109. For TSPAN14 (UniProt Q8NG11) the value was inactive: -0.011; for TWF2 (UniProt Q6IBS0), inactive: -0.059; for TUBB2B (UniProt Q9BVA1), inactive: 0.172. For the target TXLNG (UniProt Q9NUQ3), the log2 fold change is inactive: 0.011. In the case of TXNDC15 (UniProt Q96J42), the log2 fold change is inactive: -0.011. Turning to TTPAL (UniProt Q9BTX7), the log2 fold change was inactive: -0.142.

On to TTC1 (UniProt Q99614), for which the log2 fold change is inactive: 0.022. On to TSTA3 (UniProt Q13630), for which the log2 fold change was inactive: -0.022. With TTC7B isoform 2 (UniProt Q86TV6), the log2 fold change was inactive: 0.055.

For TUBE1 (UniProt Q9UJT0), the log2 fold change is inactive: -0.001. Regarding UBE2F isoform 2 (UniProt Q969M7), the log2 fold change was inactive: -0.064. For UBE2A (UniProt P49459), the log2 fold change was inactive: -0.05. As to TTC27 (UniProt Q6P3X3), the log2 fold change was inactive: 0.072. For TTC13 (UniProt Q8NBP0) the value was inactive: 0.119; for TUBA1B (UniProt P68363), inactive: 0.016.

Values taken from the supplement of paper PMC10849652.
